Experimental data: PubChem BioAssay AID1259306 (Sanger Institute, 2017)
The whole screen tested 794 reagents; shown is a part drawn at random. 11 of them (1.4%) were called active. 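Calls reflect knock-down alone; synergy scores play no part, so knock-downs synergising with a drug can be called no change.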 A number with no mark means an inactive call. Not all columns of the deposit are shown. Reagent sequences are not shown. The record does not give: the amount of reagent, the time to read-out.

Screen: 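Kinase-wide siRNA screen for partners of targeted drugs in colorectal cancer cells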 (primary screen)
Cells: human SNU-C5 colorectal cancer cells
Reagent: siRNA pool against human genes
Conditions: DMSO vehicle alone, or one anchor drug: BYL719 at 1 µM, cetuximab at 5 µg/ml or trametinib at 10 nM, given 24 h into the assay
Measured: 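Viability versus non-targeting pool averaged across replicates, given as fraction and robust z-score, and synergy scores for BYL719, cetuximab or trametinib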
Reading the numbers: robust z-score, knock-down alone: higher = more viable cells
Hit rule: 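Essential if knock-down without drug gives a robust z-score under -3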
Calls: active = essential (knock-down alone); inactive = no change alone

| Gene | robust z-score, knock-down alone |
| --- | --- |
| CDADC1 (cytidine and dCMP deaminase domain containing 1) | -0.259 |
| DGKB (diacylglycerol kinase beta) | -2.2 |
| CEP290 (centrosomal protein 290) | 0.159 |
| DDR2 (discoidin domain receptor tyrosine kinase 2) | 0.788 |
| PRKCQ (protein kinase C theta) | 0.0711 |
| GUCY2D (guanylate cyclase 2D, retinal) | -2.74 |
| PGK2 (phosphoglycerate kinase 2) | -0.517 |
| MGA (MAX dimerization protein MGA) | -2.5 |
| MAP3K1 (mitogen-activated protein kinase kinase kinase 1) | 0.989 |
| CDK9 (cyclin dependent kinase 9) | 0.989 |
| BRAF (B-Raf proto-oncogene, serine/threonine kinase) | -0.459 |
| TGFBR3 (transforming growth factor beta receptor 3) | 0.58 |
| CDK16 (cyclin dependent kinase 16) | -0.0836 |
| STK32C (serine/threonine kinase 32C) | 0.0697 |
| PI4KB (phosphatidylinositol 4-kinase beta) | 0.989 |
| TAB1 (TGF-beta activated kinase 1 (MAP3K7) binding protein 1) | 0.989 |
| AMHR2 (anti-Mullerian hormone receptor type 2) | 0.865 |
| CSNK2A2 (casein kinase 2 alpha 2) | -1.1 |
| CSNK1D (casein kinase 1 delta) | 0.516 |
| KMT2B (lysine methyltransferase 2B) | 0.634 |
| TGFBR1 (transforming growth factor beta receptor 1) | 0.989 |
| STK24 (serine/threonine kinase 24) | -0.486 |
| APC (APC regulator of Wnt signaling pathway) | -1.59 |
| ALDH18A1 (aldehyde dehydrogenase 18 family member A1) | -0.349 |
| PAK6 (p21 (RAC1) activated kinase 6) | 0.15 |
| ABL1 (ABL proto-oncogene 1, non-receptor tyrosine kinase) | 0.989 |
| SCYL1 (SCY1 like pseudokinase 1) | 0.989 |
| PKM (pyruvate kinase M1/2) | 0.000327 |
| PTPN11 (protein tyrosine phosphatase non-receptor type 11) | 0.989 |
| SPHK2 (sphingosine kinase 2) | 0.989 |
| PKIB (cAMP-dependent protein kinase inhibitor beta) | 0.233 |
| IRAK1 (interleukin 1 receptor associated kinase 1) | -0.533 |
| NRAS (NRAS proto-oncogene, GTPase) | -0.389 |
| TRPM6 | 0.175 |
| EPHA1 (EPH receptor A1) | 0.9 |
| RIPK1 (receptor interacting serine/threonine kinase 1) | -1.28 |
| BPTF (bromodomain PHD finger transcription factor) | 0.281 |
| PI4K2A (phosphatidylinositol 4-kinase type 2 alpha) | -0.0689 |
| CAMKK1 (calcium/calmodulin dependent protein kinase kinase 1) | 0.713 |
| TAOK3 (TAO kinase 3) | -0.433 |
| GUCY2EP (guanylate cyclase 2E, pseudogene) | 0.247 |
| RIOK1 (RIO kinase 1) | -0.499 |
| CALM3 (calmodulin 3) | 0.41 |
| MAP3K4 (mitogen-activated protein kinase kinase kinase 4) | 0.744 |
| TYK2 (tyrosine kinase 2) | 0.08 |
| PRKAA1 (protein kinase AMP-activated catalytic subunit alpha 1) | -0.255 |
| ATP23 | 0.989 |
| CDKL5 (cyclin dependent kinase like 5) | 0.945 |
| PIK3R4 (phosphoinositide-3-kinase regulatory subunit 4) | -0.397 |
| AXL (AXL receptor tyrosine kinase) | 0.989 |
| PRKAB2 (protein kinase AMP-activated non-catalytic subunit beta 2) | 0.325 |
| PAK2 (p21 (RAC1) activated kinase 2) | -0.337 |
| PKDCC (protein kinase domain containing, cytoplasmic) | -0.19 |
| NUCKS1 | 0.989 |
| ITPKC (inositol-trisphosphate 3-kinase C) | 0.989 |
| PRPS2 (phosphoribosyl pyrophosphate synthetase 2) | 0.204 |
| PLK2 (polo like kinase 2) | 0.989 |
| NR4A2 (nuclear receptor subfamily 4 group A member 2) | -1.77 |
| GUCY2C (guanylate cyclase 2C) | 0.989 |
| MTOR (mechanistic target of rapamycin kinase) | 0.547 |
| PDPK1 (3-phosphoinositide dependent protein kinase 1) | -0.331 |
| CASK (calcium/calmodulin dependent serine protein kinase) | -0.565 |
| PIM1 (Pim-1 proto-oncogene, serine/threonine kinase) | 0.989 |

Not a retest: 7 of the entries above.
| Gene | robust z-score, knock-down alone |
| --- | --- |
| APC (APC regulator of Wnt signaling pathway) | -1.59 |
| ALDH18A1 (aldehyde dehydrogenase 18 family member A1) | -0.349 |
| PAK6 (p21 (RAC1) activated kinase 6) | 0.15 |
| ABL1 (ABL proto-oncogene 1, non-receptor tyrosine kinase) | 0.989 |
| SCYL1 (SCY1 like pseudokinase 1) | 0.989 |
| PKM (pyruvate kinase M1/2) | 0.000327 |
| PTPN11 (protein tyrosine phosphatase non-receptor type 11) | 0.989 |
